Test results taken from PubChem BioAssay AID445 (National Center for Advancing Translational Sciences (NCATS), 2006).
The other results are listed elsewhere or left out. Shown are side measurements of this screen, not its main read-out; they come without a call. Compounds called inactive in the main read-out are mostly missing here. Words in brackets tell the shape of the fitted curve; partial curves, single points and poor fits give uncertain potencies.

Experiment: IkB Signaling
Conditions: ABC-DLBCL IkBa-CBG/CBR dual luciferase ratio (green luciferase fused to IkBa over red control in OCI-Ly3 lymphoma cells), 4 h
From the text: NIH Molecular Libraries Screening Centers Network [MLSCN]
NIH Chemical Genomics Center [NCGC]
Nuclear factor kappa-B (NF-kappa-B) plays an important role in normal B cell development and survival. Diffuse large B cell lymphoma (DLBCL) is the most commonly observed type of non-Hodgkin's lymphoma. Gene expression analysis has identified an activated B cell-like subtype of DLBCL (ABC-DLBCL) which expresses known NF-kappa-B target genes. […] However, targets upstream of IKK have been largely unexplored and so nodes upstream of IKK in the NF-kappa-B pathway remain untested due to the lack of chemical probes.
A cell-sensor assay for I-kappa-B-alpha stabilization was developed with NIH investigator Dr. R. Eric Davis in Dr. Louis M. Staudt's laboratory. The assay uses green (CBG68) and red (CBR) emitting beetle luciferases [Chroma-Glo(TM) developed by Promega Corp.] where the green luciferase is fused to I-kappa-B-alpha and the red luciferase is present in its native state. Both luciferase genes are stably present in the OCI-Ly3 human ABC DLBCL cell line, but their expression is under the control of tetracycline-inducible promoters. Following the addition of doxycycline to induce expression of the luciferases, the green luminescence in control cultures rises only slowly because the CBG fusion partner I-kappa-B-alpha is targeted by IKK activity for rapid degradation. In contrast, green luminescence rises rapidly in the presence of proteasome inhibitors or IKK inhibitors. The rise in red luminescence of CBR is not affected by proteasome or IKK inhibitors, and serves as normalization for cell number and nonspecific effects. Compounds were screened as a concentration-titration series that ranged from 57 uM to 0.7 nM.
NCGC Assay Protocol Summary:
Cells were seeded in 1536-well plates at 5000 cells/3ul in IMDM medium containing 0.5% FBS, w/o phenol red, L-glutamine, 25 mM HEPES, 3 mg/ml sodium bicarbonate. After centrifugation for 1 min. at 1000 rpm, 23 nl of compounds or DMSO were delivered to each well using a pin tool. Then 1ul 80ng/ml doxycycline was dispensed into white solid 1536-well plates and the plates were incubated at 37C/5% C02 in a cell incubator for 4 hrs. Then 4 ul Chroma-Glo luminescent substrate mix (Promega) was added to each well. The plate was incubated at R.T. for 10-15 min. The plates were measured on a ViewLux plate reader for green luminescence (540/20 nm filter) and red luminescence (618/8 nm filter). The green and red luminescent signals were corrected for red and green luminescence filter overlap using previously determined filter calibration constants (determined using the procedure outlined in the Promega Technical Manual). The %Activity was determined from the ratio of corrected green/red luminescent values. Green luminescent and ratio %Activity was determined by normalizing to the difference in signal between basal cells (0% Activity) and cells incubated with 10 uM of the proteasome inhibitor MG-132 (100% Activity). Red luminescent %Activity was normalized to the difference between red luminesence in basal cells (0%Activity) and zero luminescence (-100% Activity).
Concentration-response curves were fitted to the signals arising from the green luminescence (I-kappa-B-alpha-luciferase fusion; IkB-luc) and the red luminescence (unfused luciferase; luc) as well as the calculated ratio. The concentration-effect curves were then classified based on curve quality (r2), response magnitude and degree of measured activity. Compounds were then categorized based on their concentration-response curves for all three datasets (Ikb-luc, luc and ratio).
Keywords: IKK, I-kappa-B, IkB, IkBa, cytotoxicity, luminescence, MLSMR, MLSCN, NIH Roadmap, qHTS, NCGC

[1] = measured here: control luc red channel unless noted

CCC(=O)N1c2ccccc2CC1C(=O)NCCN1CCN(c2cccc(C(F)(F)F)c2)CC1 (stereo not drawn)
AC50 [1]: 15.8 µM [falling, partial curve]

Cc1ccccc1CSc1nc2cc(C(=O)NC3CCCC3)ccc2c(=O)n1Cc1ccccc1
AC50 [1]: 0.0316 µM [falling, partial curve]

Cc1ccc(O)c(NC(=O)c2ccc(Br)c(S(=O)(=O)N3CCCCC3)c2)c1
AC50 [1]: 10 µM [falling, partial curve]

CCC(c1nnnn1C1CCCCC1)N(Cc1ccco1)Cc1cc2ccc(OC)cc2[nH]c1=O (stereo not drawn)
AC50 [1]: 20 µM [falling, partial curve]

CCCSc1ccc2nc(NC(=O)OC)[nH]c2c1
AC50 (measured here: IkB-luc green channel): 1.58 µM [rising, full curve] | AC50 (measured here: control luc red channel): 1.26 µM [rising, full curve]

Cc1ccc(-n2nc(CO)c(C(=O)NC(C)CCCc3ccccc3)n2)cc1C (stereo not drawn)
AC50 [1]: 12.6 µM [falling, partial curve]

Cc1ccc(C)c2[nH]c(=O)c(CN(Cc3nnnn3C3CCCCC3)CC3CCCO3)cc12 (stereo not drawn)
AC50 [1]: 39.8 µM [falling, single point]

COc1ccc(C)cc1NC(=O)Cn1c(=O)cc(C)c2c(C)nn(C)c21
AC50 [1]: 12.6 µM [falling, partial curve]

Cc1cc2cc(C(c3nnnn3Cc3ccco3)N3CCc4ccccc43)c(=O)[nH]c2cc1C (stereo not drawn)
AC50 [1]: 25.1 µM [falling, partial curve]

COC(=O)C1=C(N)Oc2cc(N(C)C)ccc2C1c1ccccc1OC (stereo not drawn)
AC50 [1]: 5.01 µM [rising, single point] [measured here: IkB-luc green channel]

Nn1c(SCC(=O)N2CCCc3ccccc32)nnc1-c1ccc(Cl)cc1
AC50 [1]: 39.8 µM [falling, single point]

COc1cccc(CNC(=O)c2ccc3c(c2)nnn3C2CCCC2)c1
AC50 [1]: 39.8 µM [falling, single point]

COc1ccccc1C(=O)Nc1nnc(SCc2cc(=O)c3cc(Cl)ccc3[nH]2)s1
AC50 [1]: 6.31 µM [falling, partial curve]

COc1ccc(NC(=O)c2c(-c3ccc(C)cc3)nnc3ccccc23)cc1Cl
AC50 [1]: 39.8 µM [rising, partial curve, poor fit]

Cc1ccc(C)c(N2CCN(C(=O)C3CCCN(S(=O)(=O)c4cccc5nsnc45)C3)CC2)c1 (stereo not drawn)
AC50 [1]: 10 µM [falling, partial curve]

O=C(CCC1N=C2c3ccccc3N=C(SCc3ccc(Cl)cc3)N2C1=O)NCCc1ccccc1 (stereo not drawn)
AC50 [1]: 25.1 µM [falling, partial curve]

Fc1ccc(C(NCCc2ccc(Cl)cc2)c2nnc(-c3ccccc3)o2)c(Cl)c1 (stereo not drawn)
AC50 [1]: 12.6 µM [falling, partial curve]

COc1cccc(C(=O)NCC2CCN(c3ccc(S(=O)(=O)N4CCOCC4)cc3)CC2)c1
AC50 [1]: 15.8 µM [falling, partial curve]

Cc1c(NC(=O)Nc2ccc(Br)cc2F)sc2nc3n(c(=O)c12)CCC(C)CC3 (stereo not drawn)
AC50 [1]: 15.8 µM [falling, partial curve]

CC(=O)NCC(c1ccc2c(c1)OCO2)N1CCN(c2ccccc2)CC1 (stereo not drawn)
AC50 [1]: 31.6 µM [rising, single point]

CCn1c2ccccc2c2nnc(SCc3ccc(C(=O)OC)o3)nc21
AC50 [1]: 20 µM [falling, partial curve]

CCOC(=O)c1ccc(NC(=O)/C(C#N)=C/c2ccc(OC)cc2)cc1
AC50 [1]: 1 µM [falling, partial curve]

CCCCc1nn2c(=O)cc(COC(=O)c3cccc(NC(=O)CCc4ccccc4)c3)nc2s1
AC50 [1]: 7.94 µM [falling, partial curve]

O=S(=O)(NCc1nc2cccnc2n1Cc1ccccc1)c1ccc2c(c1)CCCC2
AC50 [1]: 39.8 µM [falling, single point]

COc1ccc(NC(=O)c2ccc3nc(CCc4ccccc4)oc3c2)c(OC)c1
AC50 [1]: 0.398 µM [rising, full curve, poor fit]

Cc1ccccc1NC(=O)N1CCc2c(sc3c2CCCC3)C1c1ccccc1 (stereo not drawn)
AC50 [1]: 3.16 µM [falling, full curve]

CCCCCn1cc2c(c1-c1ccc(Br)cc1)c(=O)n(C)c(=O)n2C
AC50 [1]: 25.1 µM [falling, partial curve]

COc1ccc(OC)c(NC(=O)c2cc3cc(C)ccc3n2C)c1
AC50 [1]: 20 µM [falling, single point]

COc1cccc(NC(=O)Cn2nnc(-c3nc(-c4ccccc4)no3)c2N)c1
AC50 [1]: 10 µM [falling, partial curve]

CCSc1nnc(NC(=O)CSc2ncccn2)s1
AC50 [1]: 10 µM [falling, partial curve]

CCOc1ccc(C(=O)c2cn(CC(=O)Nc3ccc(F)cc3)c3cc4c(cc3c2=O)OCO4)cc1
AC50 [1]: 2 µM [falling, full curve]

CCOc1ccccc1CNC(=O)CCCn1ncn2c(cc3occc32)c1=O
AC50 [1]: 31.6 µM [falling, single point]

Cc1nn(CC(=O)Nc2ccccc2C(F)(F)F)c(=O)c2cccn12
AC50 [1]: 25.1 µM [falling, partial curve]

COC(=O)C1=C(C)Nc2nc(-c3ccccc3)nn2C1c1ccc(C)o1 (stereo not drawn)
AC50 [1]: 15.8 µM [falling, partial curve]

Cc1ccccc1NC(=O)Nc1nnc(N2CCCCCC2)s1
AC50 [1]: 31.6 µM [falling, single point]

Cc1cc(C)c(C)c(OCC(=O)Nc2ccc(S(=O)(=O)Nc3nc(C)cc(C)n3)cc2)c1
AC50 [1]: 7.94 µM [falling, partial curve, poor fit]

O=C(CS(=O)CC(=O)N(CC(=O)NC1CCCC1)C1CCCCC1)Nc1ccc(F)cc1 (stereo not drawn)
AC50 [1]: 15.8 µM [falling, partial curve]

O=C(CSC1=Nc2ccccc2N=C(c2ccc(F)cc2)C1)Nc1cccc(C(F)(F)F)c1
AC50 [1]: 39.8 µM [falling, single point]

CCc1ccc(NC(=O)CC2C(=O)N(c3cccc(C)c3)C(=O)N2CCC(C)C)cc1 (stereo not drawn)
AC50 [1]: 15.8 µM [falling, partial curve]

COc1ccc2c(c1)c(C(O)CN1CCN(Cc3ccc4c(c3)OCO4)CC1)c(C)n2C (stereo not drawn)
AC50 [1]: 15.8 µM [falling, partial curve]

CCOC(=O)C1CCCN(C(=O)C2CCN(S(=O)(=O)c3c(C)noc3/C=C/c3ccccc3F)CC2)C1 (stereo not drawn)
AC50 [1]: 25.1 µM [falling, single point]

CCOC(=O)c1c(C)oc2c(F)c(F)c(F)c(F)c2c1=O
AC50 [1]: 20 µM [falling, single point]

COc1ccc(-c2noc(CCC(=O)NCC3CCN(Cc4cccc(C)c4)CC3)n2)cc1
AC50 [1]: 12.6 µM [falling, partial curve]

O=C1NCCCc2c1oc1ccc(O)cc21
AC50 [1]: 15.8 µM [falling, partial curve]

COc1ccc2nc(SCC(=O)Nc3ccc4c(c3)OCCO4)[nH]c2c1
AC50 [1]: 15.8 µM [falling, partial curve]

COc1ccc(CNC(=O)CN(c2ccc(C(C)C)cc2)S(=O)(=O)c2c(C)nn(C)c2C)cc1
AC50 [1]: 12.6 µM [falling, partial curve]

COc1ccc(OC)c(Nc2cc(-c3ccccc3)nc(N)n2)c1
AC50 [1]: 3.98 µM [rising, full curve] [measured here: IkB-luc green channel]

Cc1ccc(S(=O)(=O)N2CCCc3cc(NS(=O)(=O)c4cc(F)ccc4F)ccc32)cc1
AC50 [1]: 39.8 µM [falling, single point]

O=C(NCCc1ccccc1)c1cnc2sccn2c1=O
AC50 [1]: 15.8 µM [falling, partial curve]

CCOC(=O)c1ccc(N2C(=O)c3n[nH]c(-c4ccco4)c3C2c2ccc(OCC)cc2)cc1 (stereo not drawn)
AC50 [1]: 25.1 µM [falling, single point]

CCCC(=O)Nc1cc(C(=O)NCc2ccccc2)ccc1S(=O)(=O)c1ccc(Cl)cc1
AC50 [1]: 2.51 µM [falling, partial curve]

O=C(CSc1nc2c(oc3ccccc32)c(=O)n1-c1ccccc1)Nc1ccccc1F
AC50 [1]: 0.126 µM [falling, full curve, poor fit]

CCc1ccc(OCc2cc(=O)n3c4c(sc3n2)CCCC4)cc1
AC50 [1]: 6.31 µM [rising, partial curve, poor fit]

COc1cccc(N2CCN(C(=O)C3Cc4ccccc4N3C(C)=O)CC2)c1 (stereo not drawn)
AC50 [1]: 25.1 µM [falling, single point]

O=C(C1CCC1)N1CCCc2cc(S(=O)(=O)N3CCN(c4ccccc4)CC3)ccc21
AC50 [1]: 39.8 µM [falling, single point]

COc1ccc2c(C)nc(Nc3nc(C)cc(=O)[nH]3)nc2c1
AC50 [1]: 39.8 µM [falling, single point]

Cc1cccc(-c2nc3ccccc3n2Cc2ccccc2)c1
AC50 [1]: 20 µM [falling, single point]

CC(C)OC(=O)C(C(=O)C(F)(F)F)c1cc(NS(=O)(=O)c2ccc3c4c(cccc24)C(=O)N3)ccc1O (stereo not drawn)
AC50 [1]: 12.6 µM [falling, partial curve]

CCOC(=O)N1CCc2c(sc(NCc3cccc(F)c3)c2C(=O)Nc2ccc(OC)cc2OC)C1
AC50 [1]: 10 µM [falling, partial curve]

COc1ccc(Cl)cc1NC(=O)Cn1c(=O)n(Cc2cccs2)c(=O)c2cccnc21
AC50 [1]: 10 µM [falling, partial curve]

CC(=O)Nc1ccc(-n2c(CCC(=O)O)ccc2-c2ccc(Br)cc2)cc1
AC50 [1]: 25.1 µM [falling, single point]

CCOC(=O)c1cc(-c2ccc(C)cc2)n(CC(=O)Nc2ccccc2F)c1C
AC50 [1]: 3.98 µM [rising, partial curve]
